Data as given in US20090004658A1.
No constants are given. Whether binding was seen depends on the method and setting. In cells and extracts the contact can be indirect. Some binding calls cover weakened binding; strength is not graded here.

Sequences of proteins named here, by UniProt entry; tags and fusion partners are left off.
UniProt P05556: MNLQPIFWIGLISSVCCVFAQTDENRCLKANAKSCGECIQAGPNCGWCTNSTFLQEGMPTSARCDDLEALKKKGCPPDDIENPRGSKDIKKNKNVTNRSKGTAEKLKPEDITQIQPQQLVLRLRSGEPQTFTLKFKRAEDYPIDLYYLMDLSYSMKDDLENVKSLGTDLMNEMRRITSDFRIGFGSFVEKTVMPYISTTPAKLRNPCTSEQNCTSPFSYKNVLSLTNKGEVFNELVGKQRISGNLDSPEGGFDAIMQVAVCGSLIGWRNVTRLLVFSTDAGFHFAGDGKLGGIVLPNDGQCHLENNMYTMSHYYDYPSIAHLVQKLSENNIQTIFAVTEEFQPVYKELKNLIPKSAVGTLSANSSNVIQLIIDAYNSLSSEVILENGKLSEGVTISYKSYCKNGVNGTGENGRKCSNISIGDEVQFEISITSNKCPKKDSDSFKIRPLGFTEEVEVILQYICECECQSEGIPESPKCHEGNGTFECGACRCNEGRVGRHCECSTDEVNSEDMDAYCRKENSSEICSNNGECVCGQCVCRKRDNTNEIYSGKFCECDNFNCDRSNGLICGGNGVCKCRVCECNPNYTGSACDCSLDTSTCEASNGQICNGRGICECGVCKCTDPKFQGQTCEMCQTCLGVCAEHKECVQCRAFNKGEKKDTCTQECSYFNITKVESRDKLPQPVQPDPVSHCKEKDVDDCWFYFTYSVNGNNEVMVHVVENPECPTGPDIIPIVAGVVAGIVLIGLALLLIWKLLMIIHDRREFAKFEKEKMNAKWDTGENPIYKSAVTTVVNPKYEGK

Key:
integrin β1 [1] = target: integrin β1 (UniProt P05556); assay: co-immunoprecipitation with anti-ITGA7 antibody and protein G-Sepharose, blot with anti-integrin β1
integrin β1 [2] = target: integrin β1 (UniProt P05556); assay: co-immunoprecipitation with anti-integrin α7 antibodies from PITT1 lysates, blot with anti-integrin β1
integrin β1 [3] = target: integrin β1 (UniProt P05556); assay: co-immunoprecipitation, blot with anti-ITGB1 antibodies

Measured: binding

B1: integrin α7 expressed from pcDNA4-ITGA7 in tetracycline-induced PITT1 cells (receptor)
chain: FNLDVMGALRKEGEPGSLFGFSVALHRQLQPRPQSWLLVGAPQALALPGQQANRTGGLFACPLSLEETDCYRVDIDQGADMQKESKENQWLGVSVRSQGPGGKIVTCAHRYEARQRVDQILETRDMIGRCFVLSQDLAIRDELDGGEWKFCEGRPQGHEQFGFCQQGTAAAFSPDSHYLLFGAPGTYNWKGLLFVTNIDSSDPDQLVYKTLDPADRLPGPAGDLALNSYLGFSIDSGKGLVRAEELSFVAGAPRANHKGAVVILRKDSASRLVPEVMLSGERLTSGFGYSLAVADLNSDGWPDLIVGAPYFFERQEELGGAVYVYLNQGGHWAGISPLRLCGSPDSMFGISLAVLGDLNQDGFPDIAVGAPFDGDGKVFIYHGSSLGVVAKPSQVLEGEAVGIKSFGYSLSGSLDMDGNQYPDLLVGSLADTAVLFRARPILHVSHEVSIAPRSIDLEQPNCAGGHSVCVDLRVCFSYIAVPSSYSPTVALDYVLDADTDRRLRGQVPRVTFLSRNLEEPKHQASGTVWLKHQHDRVCGDAMFQLQENVKDKLRAIVVTLSYSLQTPRLRRQAPGQGLPPVAPILNAHQPSTQRAEIHFLKQGCGEDKICQSNLQLVHARFCTRVSDTEFQPLPMDVDGTTALFALSGQPVIGLELMVTNLPSDPAQPQADGDDAHEAQLLVMLPDSLHYSGVRALDPAEKPLCLSNENASHVECELGNPMKRGAQVTFYLILSTSGISIETTELEVELLLATISEQELHPVSARARVFIELPLSIAGMAIPQQLFFSGVVRGERAMQSERDVGSKVKYEVTVSNQGQSLRTLGSAFLNIMWPHEIANGKWLLYPMQVELEGGQGPGQKGLCSPRPNILHLDVDSRDRRRRELEPPEQQEPGERQEPSMSWWPVSSAEKKKNITLDCARGTANCVVFSCPLYSFDRAAVLHVWGRLWNSTFLEEYSAVKSLEVIVRANITVKSSIKNLMLRDASTVIPVMVYLDPMAVVAEGVPWWVILLAVLAGLLVLALLVLLLWKMGFFKRAKHPEATVPQYHAVKIPREDRQQFKEEKTGTILRNNWGSPRREGPDAHPILAADGHPELGPDGHPGPGTA
binds: all assays above
